Patent publication US8791140B2, “Crystalline forms of 6-[2-(methylcarbamoyl)phenylsulfanyl]-3-E-[2-(pyridin-2-yl)ethenyondazole suitable for the treatment of abnormal cell growth in mammals” (Pfizer Inc., priority 2007, dated 2014)

Assay: Manufacturing filtration time
Conditions: for Filtration Time: batches of approximately 20 kg scale, 0.25 m^2 filter area, same equipment; for time to filter the batch: recent manufacturing procedure, batches of comparable size, same filter/dryer equipment

| Compound | Filtration Time [h] | time to filter the batch [h] |
| --- | --- | --- |
| CNC(=O)c1ccccc1Sc1ccc2c(/C=C/c3ccccn3)n[nH]c2c1 [Form IV, 6-[2-(methylcarbamoyl)phenylsulfanyl]-3-E-[2-(pyridin-2-yl)ethenyl]indazole] | 25.9 | 26 |
| CNC(=O)c1ccccc1Sc1ccc2c(/C=C/c3ccccn3)n[nH]c2c1 [Form XLI, 6-[2-(methylcarbamoyl)phenylsulfanyl]-3-E-[2-(pyridin-2-yl)ethenyl]indazole] | 0.1 | – |
| CNC(=O)c1ccccc1Sc1ccc2c(/C=C/c3ccccn3)n[nH]c2c1 [Form XXV, 6-[2-(methylcarbamoyl)phenylsulfanyl]-3-E-[2-(pyridin-2-yl)ethenyl]indazole] | 4.0 | 4 |
